Data as given in the supplement of paper PMC10849652.
Some of the results follow.

Amino acid sequences for entries named in this document (tags omitted). A change or cut given only in a name is not applied to a line headed by its entry.
UniProt P98194: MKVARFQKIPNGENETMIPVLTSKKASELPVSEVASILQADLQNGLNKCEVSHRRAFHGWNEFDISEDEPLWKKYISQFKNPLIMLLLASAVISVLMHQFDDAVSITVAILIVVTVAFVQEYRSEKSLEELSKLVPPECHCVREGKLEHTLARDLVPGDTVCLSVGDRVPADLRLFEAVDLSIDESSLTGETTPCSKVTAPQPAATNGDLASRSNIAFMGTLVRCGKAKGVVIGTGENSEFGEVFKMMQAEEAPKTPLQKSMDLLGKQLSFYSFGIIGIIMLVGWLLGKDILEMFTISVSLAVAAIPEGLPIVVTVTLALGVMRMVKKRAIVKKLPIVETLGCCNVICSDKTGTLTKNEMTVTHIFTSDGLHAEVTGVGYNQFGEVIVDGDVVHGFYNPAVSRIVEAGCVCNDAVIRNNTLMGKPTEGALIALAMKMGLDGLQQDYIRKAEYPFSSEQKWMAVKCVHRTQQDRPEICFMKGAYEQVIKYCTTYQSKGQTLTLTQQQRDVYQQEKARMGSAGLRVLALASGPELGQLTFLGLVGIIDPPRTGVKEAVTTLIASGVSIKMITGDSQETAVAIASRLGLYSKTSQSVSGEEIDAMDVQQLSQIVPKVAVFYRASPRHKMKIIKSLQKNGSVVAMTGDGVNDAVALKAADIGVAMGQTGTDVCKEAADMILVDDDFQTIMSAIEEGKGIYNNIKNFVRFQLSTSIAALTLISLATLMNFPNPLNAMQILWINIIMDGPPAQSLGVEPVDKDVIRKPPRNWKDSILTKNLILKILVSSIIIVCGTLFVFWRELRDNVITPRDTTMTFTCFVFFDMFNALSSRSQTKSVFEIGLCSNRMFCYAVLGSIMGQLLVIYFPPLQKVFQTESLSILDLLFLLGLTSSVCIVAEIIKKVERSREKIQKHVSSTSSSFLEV
UniProt P61769, whole entry, looked up: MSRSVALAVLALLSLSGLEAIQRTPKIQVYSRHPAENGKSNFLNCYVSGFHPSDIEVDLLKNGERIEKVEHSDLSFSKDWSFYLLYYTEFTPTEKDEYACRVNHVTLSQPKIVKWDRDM
UniProt Q8WWM7: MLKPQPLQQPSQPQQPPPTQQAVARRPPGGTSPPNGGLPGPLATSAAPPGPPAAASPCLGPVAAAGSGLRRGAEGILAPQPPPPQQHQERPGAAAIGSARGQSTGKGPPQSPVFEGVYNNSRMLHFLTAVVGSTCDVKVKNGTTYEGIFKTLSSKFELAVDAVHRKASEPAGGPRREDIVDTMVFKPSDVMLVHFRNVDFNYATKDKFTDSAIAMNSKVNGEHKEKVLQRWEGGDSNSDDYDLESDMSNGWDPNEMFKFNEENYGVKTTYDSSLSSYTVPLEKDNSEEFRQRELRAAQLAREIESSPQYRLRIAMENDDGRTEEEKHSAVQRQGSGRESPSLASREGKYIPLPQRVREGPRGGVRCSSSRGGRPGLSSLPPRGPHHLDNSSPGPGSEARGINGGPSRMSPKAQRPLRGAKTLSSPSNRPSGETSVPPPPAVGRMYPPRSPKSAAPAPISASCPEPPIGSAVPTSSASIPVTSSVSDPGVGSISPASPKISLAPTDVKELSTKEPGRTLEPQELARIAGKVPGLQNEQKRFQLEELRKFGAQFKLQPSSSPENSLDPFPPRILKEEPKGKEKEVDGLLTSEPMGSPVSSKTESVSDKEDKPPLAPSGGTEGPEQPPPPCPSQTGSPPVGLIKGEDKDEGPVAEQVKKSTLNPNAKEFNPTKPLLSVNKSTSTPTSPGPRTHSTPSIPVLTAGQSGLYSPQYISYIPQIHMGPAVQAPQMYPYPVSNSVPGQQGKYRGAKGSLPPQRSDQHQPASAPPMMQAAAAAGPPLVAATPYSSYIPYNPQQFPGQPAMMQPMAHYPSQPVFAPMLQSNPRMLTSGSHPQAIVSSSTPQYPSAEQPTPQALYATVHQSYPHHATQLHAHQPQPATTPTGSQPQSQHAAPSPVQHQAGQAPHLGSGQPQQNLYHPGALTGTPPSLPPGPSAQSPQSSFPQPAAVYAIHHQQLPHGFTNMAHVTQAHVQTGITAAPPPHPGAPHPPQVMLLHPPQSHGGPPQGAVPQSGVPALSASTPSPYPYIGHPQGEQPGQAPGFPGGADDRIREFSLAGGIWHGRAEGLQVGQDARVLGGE
UniProt P25311: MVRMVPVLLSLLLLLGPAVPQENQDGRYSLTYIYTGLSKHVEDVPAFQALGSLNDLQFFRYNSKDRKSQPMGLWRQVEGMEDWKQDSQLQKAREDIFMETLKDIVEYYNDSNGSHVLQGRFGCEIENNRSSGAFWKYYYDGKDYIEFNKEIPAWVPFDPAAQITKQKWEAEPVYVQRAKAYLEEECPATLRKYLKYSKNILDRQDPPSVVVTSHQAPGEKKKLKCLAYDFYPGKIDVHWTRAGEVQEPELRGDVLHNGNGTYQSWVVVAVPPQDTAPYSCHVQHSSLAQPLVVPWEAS
UniProt L0R819, whole entry, looked up: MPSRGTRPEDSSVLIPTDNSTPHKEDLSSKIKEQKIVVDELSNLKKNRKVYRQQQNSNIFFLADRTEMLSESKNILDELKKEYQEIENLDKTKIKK
UniProt O75964: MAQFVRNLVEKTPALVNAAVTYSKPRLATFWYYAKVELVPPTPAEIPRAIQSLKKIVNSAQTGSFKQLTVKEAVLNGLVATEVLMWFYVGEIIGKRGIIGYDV
UniProt Q8N5M1: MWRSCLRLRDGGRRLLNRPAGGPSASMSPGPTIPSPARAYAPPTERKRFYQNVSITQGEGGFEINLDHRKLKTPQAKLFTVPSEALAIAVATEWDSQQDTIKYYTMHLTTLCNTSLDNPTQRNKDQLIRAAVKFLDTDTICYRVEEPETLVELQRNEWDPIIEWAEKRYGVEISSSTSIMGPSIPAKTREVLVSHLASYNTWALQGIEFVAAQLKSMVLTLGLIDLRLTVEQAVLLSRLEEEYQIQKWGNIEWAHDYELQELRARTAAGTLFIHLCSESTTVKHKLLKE
UniProt Q96BY7: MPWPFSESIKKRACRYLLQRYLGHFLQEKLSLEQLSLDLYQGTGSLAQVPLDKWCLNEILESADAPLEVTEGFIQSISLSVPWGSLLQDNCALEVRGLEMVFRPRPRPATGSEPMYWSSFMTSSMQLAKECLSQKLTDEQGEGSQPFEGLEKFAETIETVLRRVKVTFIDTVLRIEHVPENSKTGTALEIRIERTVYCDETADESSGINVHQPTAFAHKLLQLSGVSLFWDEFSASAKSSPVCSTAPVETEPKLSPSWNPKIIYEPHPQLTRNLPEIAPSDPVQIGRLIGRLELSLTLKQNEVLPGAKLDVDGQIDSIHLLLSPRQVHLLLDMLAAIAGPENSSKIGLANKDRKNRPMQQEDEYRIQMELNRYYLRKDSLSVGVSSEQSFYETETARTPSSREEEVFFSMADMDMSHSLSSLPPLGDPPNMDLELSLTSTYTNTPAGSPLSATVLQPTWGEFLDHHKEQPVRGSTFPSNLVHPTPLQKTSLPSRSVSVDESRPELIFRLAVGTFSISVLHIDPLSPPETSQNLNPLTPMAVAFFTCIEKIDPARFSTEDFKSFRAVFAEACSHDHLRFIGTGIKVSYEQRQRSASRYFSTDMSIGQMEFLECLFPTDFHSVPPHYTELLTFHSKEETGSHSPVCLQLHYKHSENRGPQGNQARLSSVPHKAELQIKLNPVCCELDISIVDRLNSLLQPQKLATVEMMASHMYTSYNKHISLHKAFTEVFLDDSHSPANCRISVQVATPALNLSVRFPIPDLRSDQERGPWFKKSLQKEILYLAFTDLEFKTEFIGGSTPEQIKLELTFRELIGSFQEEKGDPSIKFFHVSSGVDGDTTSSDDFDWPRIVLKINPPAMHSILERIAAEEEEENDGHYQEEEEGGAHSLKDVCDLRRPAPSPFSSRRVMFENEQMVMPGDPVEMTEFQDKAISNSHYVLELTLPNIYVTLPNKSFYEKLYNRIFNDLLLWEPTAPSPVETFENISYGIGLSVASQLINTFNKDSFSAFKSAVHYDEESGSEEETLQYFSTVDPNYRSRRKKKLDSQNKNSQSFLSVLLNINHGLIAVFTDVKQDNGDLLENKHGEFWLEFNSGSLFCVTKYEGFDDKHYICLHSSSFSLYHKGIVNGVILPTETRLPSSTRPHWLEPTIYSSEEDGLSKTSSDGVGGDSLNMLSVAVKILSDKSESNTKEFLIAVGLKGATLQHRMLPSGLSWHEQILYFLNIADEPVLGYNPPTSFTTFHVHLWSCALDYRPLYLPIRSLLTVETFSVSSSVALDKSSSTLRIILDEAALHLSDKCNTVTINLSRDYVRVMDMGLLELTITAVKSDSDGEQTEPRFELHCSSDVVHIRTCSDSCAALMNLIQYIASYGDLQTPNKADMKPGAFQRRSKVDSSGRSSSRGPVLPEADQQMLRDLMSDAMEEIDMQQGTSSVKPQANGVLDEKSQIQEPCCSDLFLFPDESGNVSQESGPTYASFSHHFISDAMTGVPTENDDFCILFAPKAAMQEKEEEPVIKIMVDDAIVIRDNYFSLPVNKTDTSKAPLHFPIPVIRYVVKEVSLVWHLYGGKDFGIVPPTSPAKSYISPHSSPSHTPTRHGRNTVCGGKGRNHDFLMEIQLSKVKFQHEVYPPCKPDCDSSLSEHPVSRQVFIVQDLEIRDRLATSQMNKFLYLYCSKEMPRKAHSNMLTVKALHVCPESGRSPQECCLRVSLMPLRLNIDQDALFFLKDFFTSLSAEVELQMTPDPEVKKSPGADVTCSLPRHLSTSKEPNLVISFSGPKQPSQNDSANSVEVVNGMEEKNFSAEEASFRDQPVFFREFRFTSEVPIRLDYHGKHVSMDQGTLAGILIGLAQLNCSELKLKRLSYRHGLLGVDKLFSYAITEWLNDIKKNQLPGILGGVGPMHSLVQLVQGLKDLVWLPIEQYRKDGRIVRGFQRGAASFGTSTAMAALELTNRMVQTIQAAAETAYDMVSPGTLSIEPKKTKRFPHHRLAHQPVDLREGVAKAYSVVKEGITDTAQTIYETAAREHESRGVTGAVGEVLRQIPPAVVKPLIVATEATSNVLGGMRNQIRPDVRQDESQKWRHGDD
UniProt Q8NB49: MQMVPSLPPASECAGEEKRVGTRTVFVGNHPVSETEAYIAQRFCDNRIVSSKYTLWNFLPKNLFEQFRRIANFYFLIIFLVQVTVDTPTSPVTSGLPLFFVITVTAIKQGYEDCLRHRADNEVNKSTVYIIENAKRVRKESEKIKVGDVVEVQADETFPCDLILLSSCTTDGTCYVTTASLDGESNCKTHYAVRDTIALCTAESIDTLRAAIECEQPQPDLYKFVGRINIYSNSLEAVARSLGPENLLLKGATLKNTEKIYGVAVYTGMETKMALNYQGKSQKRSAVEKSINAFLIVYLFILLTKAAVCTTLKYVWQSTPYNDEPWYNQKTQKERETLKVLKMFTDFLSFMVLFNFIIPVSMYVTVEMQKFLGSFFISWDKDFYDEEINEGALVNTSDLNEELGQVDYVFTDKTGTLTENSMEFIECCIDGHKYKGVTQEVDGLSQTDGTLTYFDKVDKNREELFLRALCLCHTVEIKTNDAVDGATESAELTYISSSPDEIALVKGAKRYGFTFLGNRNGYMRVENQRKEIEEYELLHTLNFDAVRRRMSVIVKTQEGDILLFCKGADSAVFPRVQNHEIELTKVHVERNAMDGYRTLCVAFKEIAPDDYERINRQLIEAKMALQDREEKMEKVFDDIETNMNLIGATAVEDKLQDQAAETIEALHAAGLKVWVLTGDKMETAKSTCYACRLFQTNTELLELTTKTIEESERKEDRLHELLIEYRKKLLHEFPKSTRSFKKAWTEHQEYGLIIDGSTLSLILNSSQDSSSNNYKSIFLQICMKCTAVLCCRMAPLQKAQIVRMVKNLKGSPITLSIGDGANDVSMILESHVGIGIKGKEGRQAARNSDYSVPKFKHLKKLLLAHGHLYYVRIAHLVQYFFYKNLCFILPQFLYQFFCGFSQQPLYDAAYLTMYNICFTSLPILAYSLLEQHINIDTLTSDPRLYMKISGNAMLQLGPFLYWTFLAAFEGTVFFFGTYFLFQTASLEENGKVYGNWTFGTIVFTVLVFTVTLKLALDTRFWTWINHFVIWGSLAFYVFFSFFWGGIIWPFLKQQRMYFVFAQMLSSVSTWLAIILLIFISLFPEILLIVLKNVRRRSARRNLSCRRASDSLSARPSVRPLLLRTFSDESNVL
UniProt Q9BSB4: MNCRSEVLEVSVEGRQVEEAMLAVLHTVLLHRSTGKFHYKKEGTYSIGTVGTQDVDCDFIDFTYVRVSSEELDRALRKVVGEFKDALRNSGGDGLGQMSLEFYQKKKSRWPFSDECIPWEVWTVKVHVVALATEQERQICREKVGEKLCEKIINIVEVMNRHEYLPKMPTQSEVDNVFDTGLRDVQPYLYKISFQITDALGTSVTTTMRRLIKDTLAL

Legend:
Experiment in all cases: log2 fold change, soluble protein after heating vs DMSO (PISA); higher = thermal stabilisation; K562 lysate, 10 uM; active = over 0.2 and 3.5 SD of the protein, either way, in both replicates (recomputed)
lapatinib = compound: CS(=O)(=O)CCNCc1ccc(-c2ccc3ncnc(Nc4ccc(OCc5cccc(F)c5)c(Cl)c4)c3c2)o1 [lapatinib]
In short: (§1)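 Soluble protein was defined as the supernatant remaining after 21,000xg for 90 min, following pooling of heated aliquots and adjustment to 0.5% NP-40 at 4°C. Before that, crude K562 extract at 1 mg/mL protein in PBS pH 7.4 with 1 mM MgCl2 was treated with 10 μM compound for 30 min and heated for 3 min across 48°C-58°C. Quantification used TMTpro 16plex LC-MS/MS with channel sums equalised, and values are log-two fold changes in thermal stability relative to solvent controls from duplicates.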

pictilisib = compound: CS(=O)(=O)N1CCN(Cc2cc3nc(-c4cccc5[nH]ncc45)nc(N4CCOCC4)c3s2)CC1 [pictilisib]
In short: as §1

crizotinib = compound: C[C@@H](Oc1cc(-c2cnn(C3CCNCC3)c2)cnc1N)c1c(Cl)ccc(F)c1Cl [crizotinib]
In short: as §1

[1] = compound: C[C@H](C1=CC=C(C=C1)C(=O)NC2=C3C=CNC3=NC=C2)N
In short: as §1

duvelisib = compound: C[C@H](Nc1ncnc2nc[nH]c12)c1cc2cccc(Cl)c2c(=O)n1-c1ccccc1 [duvelisib]
In short: as §1

gandotinib = compound: Cc1cc(Nc2cc(CN3CCOCC3)c3nc(C)c(Cc4ccc(Cl)cc4F)n3n2)n[nH]1 [gandotinib]
In short: as §1

tozasertib = compound: Cc1cc(Nc2cc(N3CCN(C)CC3)nc(Sc3ccc(NC(=O)C4CC4)cc3)n2)n[nH]1 [tozasertib]
In short: as §1

doramapimod = compound: Cc1ccc(-n2nc(C(C)(C)C)cc2NC(=O)Nc2ccc(OCCN3CCOCC3)c3ccccc23)cc1 [doramapimod]
In short: as §1

bafetinib = compound: Cc1ccc(NC(=O)c2ccc(CN3CC[C@H](N(C)C)C3)c(C(F)(F)F)c2)cc1Nc1nccc(-c2cncnc2)n1 [bafetinib]
In short: as §1

[2] = compound: Cc1cccc(CC(=O)N2CCc3c2ccc(-c2cn(C)c4ncnc(N)c24)c3F)n1
In short: as §1

nilotinib = compound: Cc1cn(-c2cc(NC(=O)c3ccc(C)c(Nc4nccc(-c5cccnc5)n4)c3)cc(C(F)(F)F)c2)cn1 [nilotinib]
In short: as §1

[3] = compound: Cc1nc(Nc2n[nH]c3c2CN(C(=O)N[C@H](CN(C)C)c2ccccc2)C3(C)C)c2sccc2n1
In short: as §1

dasatinib = compound: Cc1nc(Nc2ncc(C(=O)Nc3c(C)cccc3Cl)s2)cc(N2CCN(CCO)CC2)n1 [dasatinib]
In short: as §1

[4] = compound: Cc1ncc(-c2ccnc(Nc3ccc(S(C)(=O)=O)cc3)n2)n1C(C)C
In short: as §1

[5] = compound: Cn1cc(-c2ccc3c(c2)CCN3C(=O)Cc2cccc(C(F)(F)F)c2)c2c(N)ncnc21
In short: as §1

quisinostat = compound: Cn1cc(CNCC2CCN(c3ncc(C(=O)NO)cn3)CC2)c2ccccc21 [quisinostat]
In short: as §1

tipifarnib = compound: Cn1cncc1[C@@](N)(c1ccc(Cl)cc1)c1ccc2c(c1)c(-c1cccc(Cl)c1)cc(=O)n2C [tipifarnib]
In short: as §1

[6] = compound: NC(=O)Nc1cc(-c2cccc(F)c2)sc1C(=O)N[C@H]1CCCNC1
In short: as §1

[7] = compound: NC(=O)c1cnc(N[C@@H]2CCCC[C@@H]2N)nc1Nc1cccc(-n2nccn2)c1
In short: as §1

[8] = compound: NC1(c2ccc(-c3nc4ccn5c(=O)[nH]nc5c4cc3-c3ccccc3)cc2)CCC1
In short: as §1

Measured: log2 fold change

ATP2C1 isoform 7 (UniProt P98194)
inactive: lapatinib -0.049 | pictilisib -0.032 | crizotinib -0.012 | [1] -0.083 | duvelisib -0.016 | gandotinib -0.025 | tozasertib -0.142 | doramapimod -0.055 | bafetinib -0.11 | [2] 0.044 | nilotinib 0.044 | [3] -0.065 | dasatinib -0.205 | [4] -0.122 | [5] 0.044 | quisinostat -0.172 | tipifarnib 0.025 | [6] 0.076 | [7] -0.073 | [8] -0.04

B2M (UniProt P61769)
inactive: lapatinib -0.045 | pictilisib -0.018 | crizotinib 0 | [1] -0.012 | duvelisib 0.057 | gandotinib 0.031 | tozasertib -0.013 | doramapimod 0.009 | bafetinib -0.042 | [2] 0.054 | nilotinib 0.021 | [3] 0.033 | dasatinib 0.166 | [4] 0.019 | [5] -0.121 | quisinostat -0.072 | tipifarnib 0.04 | [6] -0.005 | [7] -0.033 | [8] 0.012

ATXN2L isoform 3 (UniProt Q8WWM7)
inactive: lapatinib 0.023 | pictilisib -0.004 | crizotinib 0.038 | [1] -0.022 | duvelisib 0.014 | gandotinib 0.006 | tozasertib -0.016 | doramapimod 0.013 | bafetinib 0.002 | [2] 0.003 | nilotinib -0.033 | [3] 0.019 | dasatinib -0.045 | [4] -0.005 | [5] 0.004 | quisinostat -0.018 | tipifarnib -0.015 | [6] 0.011 | [7] 0.014 | [8] 0.006

ATG9A (UniProt Q7Z3C6)
inactive: lapatinib -0.019 | pictilisib 0.015 | crizotinib 0.025 | [1] -0.018 | duvelisib 0.025 | gandotinib 0.012 | tozasertib -0.027 | doramapimod 0.012 | bafetinib -0.054 | [2] 0.019 | nilotinib -0.023 | [3] -0.009 | dasatinib 0.029 | [4] 0 | [5] 0 | quisinostat -0.021 | tipifarnib 0.107 | [6] -0.022 | [7] 0.032 | [8] -0.054

ATN1 (UniProt P54259)
inactive: lapatinib -0.004 | pictilisib -0.03 | crizotinib 0.023 | [1] -0.06 | duvelisib 0.009 | gandotinib 0.14 | tozasertib 0.036 | doramapimod -0.024 | bafetinib 0.08 | [2] 0.124 | nilotinib -0.001 | [3] 0.043 | dasatinib -0.005 | [4] 0.035 | [5] -0.006 | quisinostat 0.01 | tipifarnib 0.026 | [6] 0.044 | [7] 0.074 | [8] 0.017

AZGP1 (UniProt P25311)
inactive: lapatinib 0.569 | pictilisib 0.604 | crizotinib 0.22 | [1] 0.494 | duvelisib -0.281 | gandotinib 0.118 | tozasertib 0.319 | doramapimod -0.044 | bafetinib 0.17 | [2] -0.047 | nilotinib 0.589 | [3] -0.024 | dasatinib 0.069 | [4] 0.281 | [5] 0.734 | quisinostat -0.09 | tipifarnib -0.197 | [6] 0.064 | [7] 0.13 | [8] -0.021

ASDURF (UniProt L0R819)
inactive: lapatinib -0.035 | pictilisib 0.061 | crizotinib 0.065 | [1] 0.016 | duvelisib 0.015 | gandotinib 0.025 | tozasertib -0.044 | doramapimod -0.005 | bafetinib -0.011 | [2] -0.008 | nilotinib -0.038 | [3] 0.041 | dasatinib 0.003 | [4] 0.017 | [5] -0.029 | quisinostat 0.011 | tipifarnib 0.005 | [6] 0.022 | [7] 0.018 | [8] -0.025

B3GAT3 (UniProt O94766)
inactive: lapatinib 0.01 | pictilisib -0.014 | crizotinib -0.061 | [1] 0.011 | duvelisib -0.066 | gandotinib 0.006 | tozasertib 0.007 | doramapimod -0.021 | bafetinib -0.089 | [2] 0.087 | nilotinib 0.039 | [3] 0.068 | dasatinib -0.031 | [4] -0.033 | [5] -0.075 | quisinostat 0.015 | tipifarnib 0.094 | [6] 0.048 | [7] 0.009 | [8] 0.017

ATF2 (UniProt P15336)
inactive: lapatinib -0.02 | pictilisib -0.007 | crizotinib -0.007 | [1] 0.164 | duvelisib -0.019 | gandotinib -0.057 | tozasertib 0.01 | doramapimod 0.016 | bafetinib 0.087 | [2] -0.059 | nilotinib -0.091 | [3] 0.107 | dasatinib 0.056 | [4] 0.225 | [5] 0.026 | quisinostat 0.013 | tipifarnib 0.02 | [6] -0.006 | [7] -0.07 | [8] 0.022

ATP5MG (UniProt O75964)
inactive: lapatinib -0.017 | pictilisib 0.008 | crizotinib -0.009 | [1] -0.073 | duvelisib 0.013 | gandotinib -0.014 | tozasertib 0 | doramapimod 0.004 | bafetinib -0.046 | [2] 0 | nilotinib 0.038 | [3] 0.009 | dasatinib -0.034 | [4] 0.029 | [5] -0.003 | quisinostat -0.013 | tipifarnib 0.003 | [6] -0.012 | [7] -0.051 | [8] 0.023

ATPAF2 (UniProt Q8N5M1)
inactive: lapatinib -0.028 | pictilisib 0.031 | crizotinib -0.066 | [1] -0.229 | duvelisib 0.042 | gandotinib 0.075 | tozasertib -0.034 | doramapimod -0.007 | bafetinib -0.057 | [2] 0.103 | nilotinib -0.034 | [3] 0.056 | dasatinib -0.008 | [4] 0.1 | [5] 0.001 | quisinostat -0.152 | tipifarnib 0.019 | [6] 0.033 | [7] 0.005 | [8] 0

ATG2B (UniProt Q96BY7)
inactive: lapatinib -0.009 | pictilisib -0.068 | crizotinib -0.06 | [1] -0.02 | duvelisib 0.014 | gandotinib -0.097 | tozasertib 0.003 | doramapimod 0.032 | bafetinib -0.049 | [2] 0.048 | nilotinib 0.01 | [3] 0.006 | dasatinib -0.066 | [4] -0.007 | [5] -0.027 | quisinostat -0.002 | tipifarnib -0.09 | [6] 0.021 | [7] 0.015 | [8] -0.016

ASXL1 (UniProt Q8IXJ9)
inactive: lapatinib 0.021 | pictilisib 0.167 | crizotinib -0.004 | [1] -0.066 | duvelisib -0.026 | gandotinib 0.49 | tozasertib 0.011 | doramapimod 0.01 | bafetinib 0.06 | [2] -0.035 | nilotinib -0.055 | [3] -0.051 | dasatinib 0.084 | [4] 0.021 | [5] 0.003 | quisinostat -0.013 | tipifarnib -0.073 | [6] 0.008 | [7] 0.031 | [8] -0.02

ATP11C (UniProt Q8NB49)
inactive: lapatinib -0.027 | pictilisib 0.007 | crizotinib 0.004 | [1] 0.016 | duvelisib 0.001 | gandotinib 0.009 | tozasertib 0.011 | doramapimod 0.007 | bafetinib -0.041 | [2] 0.018 | nilotinib -0.003 | [3] 0.007 | dasatinib 0.024 | [4] 0.023 | [5] -0.006 | quisinostat -0.002 | tipifarnib -0.026 | [6] -0.002 | [7] 0.016 | [8] -0.051

ATF7IP isoform 4 (UniProt Q6VMQ6)
inactive: lapatinib -0.006 | pictilisib 0.017 | crizotinib 0.014 | [1] 0.077 | duvelisib 0.017 | gandotinib -0.039 | tozasertib 0.059 | doramapimod -0.008 | bafetinib -0.005 | [2] -0.017 | nilotinib 0.048 | [3] 0.001 | dasatinib 0.007 | [4] 0.002 | [5] -0.034 | quisinostat -0.017 | tipifarnib 0.027 | [6] 0.01 | [7] 0.035 | [8] 0.032

Quoted from the listing (two entries):
ATG2B (UniProt Q96BY7)
inactive: lapatinib -0.009 | pictilisib -0.068 | crizotinib -0.06 | [1] -0.02 | duvelisib 0.014 | gandotinib -0.097 | tozasertib 0.003 | doramapimod 0.032 | bafetinib -0.049 | [2] 0.048 | nilotinib 0.01 | [3] 0.006 | dasatinib -0.066 | [4] -0.007 | [5] -0.027 | quisinostat -0.002 | tipifarnib -0.09 | [6] 0.021 | [7] 0.015 | [8] -0.016

ASXL1 (UniProt Q8IXJ9)
inactive: lapatinib 0.021 | pictilisib 0.167 | crizotinib -0.004 | [1] -0.066 | duvelisib -0.026 | gandotinib 0.49 | tozasertib 0.011 | doramapimod 0.01 | bafetinib 0.06 | [2] -0.035 | nilotinib -0.055 | [3] -0.051 | dasatinib 0.084 | [4] 0.021 | [5] 0.003 | quisinostat -0.013 | tipifarnib -0.073 | [6] 0.008 | [7] 0.031 | [8] -0.02

(further entries)

ATG101 (UniProt Q9BSB4)
inactive: lapatinib 0.036 | pictilisib -0.058 | crizotinib 0.069 | [1] 0 | duvelisib -0.028 | gandotinib 0.145 | tozasertib 0.044 | doramapimod 0.159 | bafetinib -0.086 | [2] 0.013 | nilotinib 0.048 | [3] -0.005 | dasatinib 0.044 | [4] 0.001 | [5] 0.023 | quisinostat 0.056 | tipifarnib -0.058 | [6] -0.03 | [7] 0.007 | [8] -0.013
